Values from PubChem BioAssay AID1224826 (NIAID, 2016)
Purpose: 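Genes that change LPS-induced Tnf promoter activity in mouse macrophages when knocked down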 (primary screen). Cell system: RAW264.7 G9 macrophages from mouse bearing reporters for p65 (GFP) and the Tnf promoter (mCherry). Reagents: siRNA pool against mouse genes, 100 nM. Timing: 16 h of LPS stimulation, after 2 days of siRNA transfection. Challenge: bacterial lipopolysaccharide (Salmonella minnesota R595), 10 ng/ml. Measurement: 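Imaged Tnf reporter mCherry in nuclei, minus background, normalised per plate to the median and expressed as robust z-scores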. Reading the numbers: Tnf reporter robust z-score: higher = stronger Tnf promoter reporter signal after LPS; Tnf reporter intensity: higher = stronger Tnf promoter reporter signal. Hit rule: 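a well counts as active at a score of -1.3 or below (Tlr4 knock-down control median) or above 3 (raised signal); controls and wells holding fewer than 50 cells are excluded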. Meaning of the calls: active = Tnf reporter clearly lowered or raised; inactive = no clear change in Tnf reporter.
The deposit covers about 17,000 reagents; below is a random part of them. Over the whole deposit, about 1,110 (6.6%) got an active call. 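Active means lowered or raised reporter signal; replicate intensities are raw and not normalised per plate.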 Entries without a mark were called inactive. No sequences are given here.

| target gene | Tnf reporter robust z-score | fewer than 50 cells in well | Tnf reporter intensity, replicate 1 | Tnf reporter intensity, replicate 2 |
| --- | --- | --- | --- | --- |
| Inpp1 (inositol polyphosphate-1-phosphatase) | 1.37 | enough cells in well | 363 | 211 |
| Alb (albumin) | 0.76 | enough cells in well | 212 | 212 |
| Higd2a (HIG1 domain family, member 2A) | – | fewer than 50 cells per well; well left out of calls | 140 | 64.2 |
| Scaper (S phase cyclin A-associated protein in the ER) | 1.26 | enough cells in well | 172 | 183 |
| Or8k17 (olfactory receptor family 8 subfamily K member 17) | -0.25 | enough cells in well | 173 | 137 |
| Naa16 (N(alpha)-acetyltransferase 16, NatA auxiliary subunit) | -0.74 | enough cells in well | 214 | 34.3 |
| Zfp143 (zinc finger protein 143) | 0.76 | enough cells in well | 294 | 282 |
| Ccdc50 (coiled-coil domain containing 50) | – | fewer than 50 cells per well; well left out of calls | 213 | 51 |
| Tm2d3 (TM2 domain containing 3) | 1.62 | enough cells in well | 383 | 126 |
| Or8g55 (olfactory receptor family 8 subfamily G member 55) | 1 | enough cells in well | 175 | 200 |
| Ltap1 (lipid transport auxiliary protein 1) | 0 | enough cells in well | 133 | 149 |
| Mbnl1 (muscleblind like splicing regulator 1) | -0.34 | enough cells in well | 169 | 129 |
| Clu (clusterin) | 0.15 | enough cells in well | 262 | 215 |
| Idh3b (isocitrate dehydrogenase 3 (NAD+) beta) | 0.07 | enough cells in well | 219 | 119 |
| Plb1 (phospholipase B1) | 0.12 | enough cells in well | 200 | 233 |
| Vmn1r219 (vomeronasal 1 receptor 219) | -1.26 | enough cells in well | 70.5 | 49.6 |
| Mpdz (multiple PDZ domain crumbs cell polarity complex component) | 1.7 | enough cells in well | 315 | 190 |
| E2f1 (E2F transcription factor 1) | -0.33 | enough cells in well | 208 | 181 |
| Stim1 (stromal interaction molecule 1) | -0.73 | enough cells in well | 88.9 | 68.4 |
| Gltpd2 (glycolipid transfer protein domain containing 2) | 0.76 | enough cells in well | 218 | 206 |
| Gpatch2l (G patch domain containing 2 like) | – | fewer than 50 cells per well; well left out of calls | 94.5 | 46.2 |
| Hmmr (hyaluronan mediated motility receptor (RHAMM)) | -0.11 | enough cells in well | 209 | 199 |
| Rpl9 (ribosomal protein L9) | – | fewer than 50 cells per well; well left out of calls | 85.5 | 72 |
| Egr1 (early growth response 1) | -0.59 | enough cells in well | 183 | 185 |

2 consecutive entries from above, for reference:
| target gene | Tnf reporter robust z-score | fewer than 50 cells in well | Tnf reporter intensity, replicate 1 | Tnf reporter intensity, replicate 2 |
| --- | --- | --- | --- | --- |
| Idh3b (isocitrate dehydrogenase 3 (NAD+) beta) | 0.07 | enough cells in well | 219 | 119 |
| Plb1 (phospholipase B1) | 0.12 | enough cells in well | 200 | 233 |
